Test results taken from patent US20030022263.

Legend:
[1] = system: T1, GST-PTS (123F2) peptide (S61)
T1 sequence: WETPDLSQAEIEQK

[2] = system: T2, GST-BRCA2 peptide (S2156)
T2 sequence: KVSPYLSQFQQDKQ

[3] = system: T3, GST-BRCA1 (SQ3) peptide (S1466)
T3 sequence: SSEYPISQNPEGLS

[4] = system: T4, GST-WRN (SQ1) peptide (S1141)
T4 sequence: EKAYSSSQPVISAQ

[5] = system: T5, GST-BRCA1 (SQ1) peptide (S1298)
T5 sequence: SASLFSSQCSELED

GST-Rad17 (561-670) = target: T6, GST-Rad17 (561-670) (UniProt O75943)
T6 sequence: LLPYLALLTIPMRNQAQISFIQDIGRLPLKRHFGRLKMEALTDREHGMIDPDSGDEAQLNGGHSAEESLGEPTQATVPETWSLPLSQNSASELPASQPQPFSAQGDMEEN

[6] = system: GST-p120E4F peptide (S355)
[7] = system: T7, GST-RPA34kD (SQ2) peptide (S52)
T7 sequence: IVPCTISQLLSATL

GST-CUT1 peptide (S1615) = system: T8, GST-CUT1 peptide (S1615)
T8 sequence: GASPVLSQGVDPRS

[8] = system: T9, GST-BRCA1 (SQ2) peptide (S1387)
T9 sequence: DCSGLSSQSDILTT

GST-Brca1SQ2 (1341-1440) = GST-Brca1SQ2 (1341-1440) (UniProt P38398)
[9] = system: T10, GST-PP2A (protein phosphatase 2A) peptide (S61)
T10 sequence: LLHIPVSQFKDADL

GST-ATR peptide (S1333) = system: T11, GST-ATR peptide (S1333)
T11 sequence: TVEPIISQLVTVLL

[10] = system: T12, GST-MRE11 (SQ2) peptide (S386)
T12 sequence: FSVLRFSQKFVDRV

[11] = system: T13, GST-p115-RhoGEF peptide (S899)
T13 sequence: RLRPLLSQLGGNSV

[12] = system: T14, GST-RAD17 (SQ2) peptide (S656)
T14 sequence: ASELPASQPQPFSA

GST-p53 peptide (S37) = system: T15, GST-p53 peptide (S37)
T15 sequence: VLSPLPSQAMDDLM

[13] = system: T16, GST-4EBP1 (Phas I) peptide (S94)
T16 sequence: EPPMEASQSHLRNS

[14] = system: T17, GST-DNA LIG-IV peptide (S132)
T17 sequence: DLKLGVSQQTIFSV

GST-PI-3K peptide (S397) = system: T18, GST-PI-3K peptide (S397)
T18 sequence: DLLMYLSQLVQALK

[15] = system: T19, GST-RAD17 (SQ1) peptide (S646)
T19 sequence: TWSLPLSQDSASEL

GST-c-ABL peptide (S446) = system: T20, GST-c-ABL peptide (S446)
T20 sequence: YPGIDLSQVYELLE

[16] = system: T21, GST-MRE11 (SQb3) peptide (S531)
T21 sequence: RARALRSQSEESAS

GST-CtIP peptide (S664) = system: T22, GST-CtIP peptide (S664)
T22 sequence: DPGADLSQYKMDVT

GST-DNA 5B peptide (S72) = system: T23, GST-DNA 5B peptide (S72)
T23 sequence: QPEPPVSQSEISEP

[17] = system: GST-p53 peptide with serine 15 mutated into threonine
[18] = target: GSTp53 1-101 fusion protein (UniProt P04637)
[19] = system: GST-DNA POL-δ peptide (S717)
GST-p95 peptide (S343) = system: T24, GST-p95 peptide (S343)
T24 sequence: TPGPSLSQGVSVDE

[20] = system: T25, GST-CHK1 (SQ2) peptide (S345)
T25 sequence: VQGISFSQPTCPDH

[21] = system: T26, GST-RPA34kD (SQ1) peptide (S33)
T26 sequence: FPAPAPSQAEKKSR

[22] = system: T27, GST-CHK1 (SQ1) peptide (S317)
T27 sequence: NVKYSSSQPEPRTG

[23] = system: T28, GST-MRE11 (SQ1) peptide (S264)
T28 sequence: QQLFYISQPGSSVV

[24] = system: T29, GST-β3A Adaptin peptide (S1092)
T29 sequence: ELKPVLSQG

GST-ATM peptide (S440) = system: T30, GST-ATM peptide (S440)
T30 sequence: PLLMILSQLLPQQR

[25] = system: T31, GST-β-ADAPTIN peptide (S935)
T31 sequence: CRAPEVSQHVYQAY

[26] = system: T32, GST-RPA34kD (SQ3) peptide (S72)
T32 sequence: TGNVEISQVTIVGI

GST-ATM peptide (S2761) = system: T33, GST-ATM peptide (S2761)
T33 sequence: YKVVPLSQRSGVLE

[27] = system: T34, GST-WRN (SQ2) peptide (S1292)
T34 sequence: TIGMHLSQAVKAGC

FLAG-tagged wild type ATR/FRP1
Relative Phosphorylation (%) [1]: 40% | Relative Phosphorylation (%) [2]: 132% | Relative Phosphorylation (%) [3]: 33% | Relative Phosphorylation (%) [4]: 49% | Relative Phosphorylation (%) [5]: 38% | in vitro kinase assay (GST-Rad17 (561-670)): excellent in vitro substrates for ATM and ATR | Relative Phosphorylation (%) [6]: 30% | Relative Phosphorylation (%) [7]: 31% | Relative Phosphorylation (%) (GST-CUT1 peptide (S1615)): 20% | Relative Phosphorylation (%) [8]: 35% | in vitro kinase assay (GST-Brca1SQ2 (1341-1440)): excellent in vitro substrates for ATM and ATR | Relative Phosphorylation (%) [9]: 34% | Relative Phosphorylation (%) (GST-ATR peptide (S1333)): 10% | Relative Phosphorylation (%) [10]: 17% | Relative Phosphorylation (%) [11]: 15% | Relative Phosphorylation (%) [12]: 1060% | Relative Phosphorylation (%) (GST-p53 peptide (S37)): 31% | Relative Phosphorylation (%) [13]: 66% | Relative Phosphorylation (%) [14]: 36% | Relative Phosphorylation (%) (GST-PI-3K peptide (S397)): 150% | Relative Phosphorylation (%) [15]: 733% | Relative Phosphorylation (%) (GST-c-ABL peptide (S446)): 8% | Relative Phosphorylation (%) [16]: 13% | Relative Phosphorylation (%) (GST-CtIP peptide (S664)): 12% | Relative Phosphorylation (%) (GST-DNA 5B peptide (S72)): 145% | amount of phosphorylation compared to the wild-type sequence [17]: reduced to 13%, 53%, and 36% compared to the wild-type sequence for ATM, ATR, and DNA-PK, respectively | in vitro kinase activity compared with ATM [18]: ATR/FRP-1 had at least 20-fold less activity than ATM towards GSTp531-101 | Relative Phosphorylation (%) [19]: 17% | Relative Phosphorylation (%) (GST-p95 peptide (S343)): 31% | Relative Phosphorylation (%) [20]: 73% | Relative Phosphorylation (%) [21]: 5% | Relative Phosphorylation (%) [22]: 58% | Relative Phosphorylation (%) [23]: 48% | Relative Phosphorylation (%) [24]: 22% | Relative Phosphorylation (%) (GST-ATM peptide (S440)): 55% | Relative Phosphorylation (%) [25]: 22% | Relative Phosphorylation (%) [26]: 8% | Relative Phosphorylation (%) (GST-ATM peptide (S2761)): 22% | Relative Phosphorylation (%) [27]: 33%
